These are yes or no findings as the source states them, for the method shown. In cells and extracts the contact can be indirect. A result given as binding can be weak or reduced; the word gives no strength.

Sequences of proteins named here, by UniProt entry; tags and fusion partners are left off. A change or cut given only in a name is not applied to a line headed by its entry.
UniProt Q9Y5U2: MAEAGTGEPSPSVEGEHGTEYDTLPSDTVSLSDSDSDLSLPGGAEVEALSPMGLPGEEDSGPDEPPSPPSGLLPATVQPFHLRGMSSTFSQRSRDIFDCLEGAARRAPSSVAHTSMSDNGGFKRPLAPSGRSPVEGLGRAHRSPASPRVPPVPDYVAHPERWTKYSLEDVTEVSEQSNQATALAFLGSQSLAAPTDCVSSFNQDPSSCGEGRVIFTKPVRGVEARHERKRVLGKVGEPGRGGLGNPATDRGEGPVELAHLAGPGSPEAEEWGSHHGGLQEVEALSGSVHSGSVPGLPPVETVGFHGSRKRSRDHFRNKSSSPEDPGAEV
UniProt O75643: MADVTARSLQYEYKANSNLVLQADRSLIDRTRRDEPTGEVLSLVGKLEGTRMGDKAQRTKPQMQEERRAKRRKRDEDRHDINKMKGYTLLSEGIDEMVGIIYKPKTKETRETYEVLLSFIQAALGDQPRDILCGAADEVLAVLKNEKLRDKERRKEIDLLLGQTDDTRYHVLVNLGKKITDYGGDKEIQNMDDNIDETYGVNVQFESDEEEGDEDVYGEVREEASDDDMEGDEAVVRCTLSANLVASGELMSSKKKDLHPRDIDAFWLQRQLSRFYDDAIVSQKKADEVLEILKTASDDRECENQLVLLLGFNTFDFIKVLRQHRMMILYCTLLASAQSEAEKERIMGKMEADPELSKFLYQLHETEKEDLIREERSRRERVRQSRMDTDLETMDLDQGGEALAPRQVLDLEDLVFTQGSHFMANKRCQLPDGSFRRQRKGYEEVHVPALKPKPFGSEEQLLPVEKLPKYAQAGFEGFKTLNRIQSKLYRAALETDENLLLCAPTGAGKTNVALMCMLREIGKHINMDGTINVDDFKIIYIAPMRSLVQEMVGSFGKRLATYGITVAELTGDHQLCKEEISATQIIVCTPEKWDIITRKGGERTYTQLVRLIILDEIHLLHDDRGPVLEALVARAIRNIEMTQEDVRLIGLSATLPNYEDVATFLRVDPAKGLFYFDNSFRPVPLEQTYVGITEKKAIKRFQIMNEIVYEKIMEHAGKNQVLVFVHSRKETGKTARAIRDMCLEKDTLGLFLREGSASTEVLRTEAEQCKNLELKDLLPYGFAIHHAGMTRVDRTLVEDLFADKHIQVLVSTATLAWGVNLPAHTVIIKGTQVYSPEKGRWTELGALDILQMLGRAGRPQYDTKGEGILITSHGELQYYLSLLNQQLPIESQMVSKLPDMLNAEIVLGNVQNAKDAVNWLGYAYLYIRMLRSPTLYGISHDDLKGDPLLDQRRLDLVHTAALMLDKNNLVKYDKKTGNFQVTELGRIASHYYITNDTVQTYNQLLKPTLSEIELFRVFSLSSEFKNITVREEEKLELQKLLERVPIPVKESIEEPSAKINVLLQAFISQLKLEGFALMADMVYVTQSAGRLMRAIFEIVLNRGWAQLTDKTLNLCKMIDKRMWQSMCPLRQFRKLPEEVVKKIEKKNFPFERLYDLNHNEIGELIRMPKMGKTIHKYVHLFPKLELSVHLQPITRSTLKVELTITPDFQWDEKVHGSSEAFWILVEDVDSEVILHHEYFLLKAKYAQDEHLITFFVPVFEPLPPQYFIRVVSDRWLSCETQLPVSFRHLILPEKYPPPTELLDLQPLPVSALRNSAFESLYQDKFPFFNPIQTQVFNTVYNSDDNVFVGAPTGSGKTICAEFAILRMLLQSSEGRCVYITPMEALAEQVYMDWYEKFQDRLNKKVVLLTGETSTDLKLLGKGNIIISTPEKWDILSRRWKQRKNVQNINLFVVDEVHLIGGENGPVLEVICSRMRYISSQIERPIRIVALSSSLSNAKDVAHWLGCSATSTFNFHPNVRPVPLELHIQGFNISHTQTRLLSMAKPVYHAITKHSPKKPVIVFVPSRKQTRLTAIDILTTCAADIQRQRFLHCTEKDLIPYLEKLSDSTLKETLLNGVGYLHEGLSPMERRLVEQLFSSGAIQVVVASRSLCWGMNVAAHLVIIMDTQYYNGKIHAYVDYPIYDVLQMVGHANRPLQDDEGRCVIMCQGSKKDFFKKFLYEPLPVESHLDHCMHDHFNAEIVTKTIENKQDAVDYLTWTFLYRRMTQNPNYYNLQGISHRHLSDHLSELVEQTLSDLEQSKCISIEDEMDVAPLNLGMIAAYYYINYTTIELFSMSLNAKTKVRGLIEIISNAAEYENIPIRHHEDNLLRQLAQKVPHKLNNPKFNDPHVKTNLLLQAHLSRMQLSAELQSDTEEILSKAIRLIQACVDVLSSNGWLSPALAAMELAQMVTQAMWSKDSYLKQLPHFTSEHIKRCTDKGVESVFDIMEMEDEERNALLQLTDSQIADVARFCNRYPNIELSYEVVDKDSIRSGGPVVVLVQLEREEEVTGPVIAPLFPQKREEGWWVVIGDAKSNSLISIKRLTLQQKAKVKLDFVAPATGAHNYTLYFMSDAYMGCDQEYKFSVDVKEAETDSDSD

The target of the experiment is TSSC4 ΔHom2ΔHom3-GFP (human) (UniProt Q9Y5U2). Kind of experiment: co-IP; anti-GFP or anti-FLAG antibodies pre-bound to agarose beads, overnight at 4 °C; lysates of transfected HeLa cells in NET2 buffer (50 mM Tris-HCl pH 7.4, 150 mM NaCl, 0.05% Nonidet P-40); western blot; also from RNase A treated lysates (Fig. 1d). For orientation: A western blot detects proteins with antibodies after separation by electrophoresis.

In the case of SNRNP200 (from UniProt O75643 1-2136), the binding entry is “binds”.

For the origin of these results see paper PMC8206348.
